Where a name gives a salt, the structure may show the parent alone.
Tested on: full thickness pig skin
Assay: Water soluble anesthetic transport in full thickness pig skin, HPLC quantification
Excerpt: (§1) HPLC was used to quantify delivered mass, and to calculate permabilities in lag times. Error bar represents mean+/−standard deviation.
as §1

Lag time (female, pig): 10.12 ± 0.32 h
SMILES: CCN(CC)CC(=O)Nc1c(C)cccc1C [Lidocaine HCl]
Maximum % Enhancement over control (highest enhancement of the anesthetic's permeability with F094): 175%

From patent US20110117008A1, “USE OF AVICINS TO DELIVER THERAPEUTIC AND DIAGNOSTIC AGENTS” (Research Development Foundation, priority 2007, published 2011)
